Drug screen on melanoma cell lines: cell count

From a melanoma drug combination screen (doi:10.1371/journal.pone.0140310); values rounded.

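The test systems are human melanoma cell lines, treated with two drugs together for 72 h and then stained and imaged. The read-out is cell count (nuclei) in % of the DMSO control; lower values mean stronger growth inhibition or killing. Every drug was used at one fixed concentration, the lower of two screened (a fifth of the higher). No replicate spread is given; individual values may be noisy.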
This is part of the screen, not chosen by result.

Compounds and concentrations:
ABT-263 (0.4 µM): CC1(C)CCC(c2ccc(Cl)cc2)=C(CN2CCN(c3ccc(C(=O)NS(=O)(=O)c4ccc(N[C@H](CCN5CCOCC5)CSc5ccccc5)c(S(=O)(=O)C(F)(F)F)c4)cc3)CC2)C1
lapatinib (0.8 µM): CS(=O)(=O)CCNCc1ccc(-c2ccc3ncnc(Nc4ccc(OCc5cccc(F)c5)c(Cl)c4)c3c2)o1
tozasertib (0.006 µM): Cc1cc(Nc2cc(N3CCN(C)CC3)nc(Sc3ccc(NC(=O)C4CC4)cc3)n2)n[nH]1
FK866 (0.01 µM): O=C(/C=C/c1cccnc1)NCCCCC1CCN(C(=O)c2ccccc2)CC1
enzastaurin (0.8 µM): Cn1cc(C2=C(c3cn(C4CCN(Cc5ccccn5)CC4)c4ccccc34)C(=O)NC2=O)c2ccccc21
veliparib (1.4 µM): C[C@]1(c2nc3c(C(N)=O)cccc3[nH]2)CCCN1
dovitinib (0.1 µM): CN1CCN(c2ccc3nc(-c4c(N)c5c(F)cccc5[nH]c4=O)[nH]c3c2)CC1
perifosine (0.4 µM): CCCCCCCCCCCCCCCCCCOP(=O)([O-])OC1CC[N+](C)(C)CC1

Drugs,C32,COLO 800,IST-MEL1,MEL-HO,COLO 792,LOX IMVI
perifosine + lapatinib,95.7,95.7,101,107,84.6,146
ABT-263 + lapatinib,67.5,54.6,84.5,71.3,47.7,54.8
lapatinib + enzastaurin,117,84.2,104,96.5,84.9,63.0
ABT-263 + dovitinib,62.7,49.9,64.6,79.9,55.1,25.9
FK866 + veliparib,89.5,24.8,71.1,56.9,56.7,87.8
lapatinib + FK866,102,59.6,64.1,39.1,44.6,98.7
dovitinib + enzastaurin,104,153,107,116,105,66.4
perifosine + ABT-263,44.2,48.7,87.7,69.7,60.5,58.1
veliparib + dovitinib,89.5,87.7,104,96.8,113,168
lapatinib + veliparib,106,68.4,104,107,76.3,103
tozasertib + FK866,85.9,105,72.8,53.2,61.8,75.5
perifosine + enzastaurin,113,120,101,105,103,96.2
perifosine + veliparib,97.5,79.5,98.8,106,86.4,69.9
perifosine + dovitinib,106,85.7,101,93.3,85.2,111
enzastaurin + veliparib,87.6,77.4,101,103,86.1,64.2
perifosine + tozasertib,100,73.1,96.1,109,105,142
veliparib + tozasertib,87.9,77.9,93.9,87.5,81.8,70.3
ABT-263 + tozasertib,34.7,36.3,82.9,79.0,58.4,26.5
ABT-263 + FK866,50.5,6.7,4.1,8.3,9.0,13.3
veliparib + ABT-263,49.7,44.7,65.5,64.9,53.2,53.7
FK866 + enzastaurin,120,37.1,59.7,40.5,46.0,58.9